Measured values from patent US20100249031A1, “Nutritional Composition Comprising Curcuminoids and Methods of Manufacture” (priority 2009, published 2010).

Assay: Solubilization of CURCUMIN C3 COMPLEX curcuminoids in MCT oil (NEOBEE 1053) as a function of temperature, HPLC
Format: physicochemical
Details: at temperatures below 95° C.

Solubility in MCT oil: not appreciably soluble
SMILES: COc1cc(/C=C/C(=O)CC(=O)/C=C/c2ccc(O)c(OC)c2)ccc1O [Curcumin, curcumin]
